# Measurements reported in doi:10.1101/2025.11.03.686242.
# Results are given in words; binding and its absence hold for the method and conditions named. In cells and extracts the contact can be indirect. Where a sequence is shown, tags or fusion partners need not be part of it.
# Target: T1, ADAMTSL4 fused with EGFP (human) (UniProt Q6UY14)
# T1 sequence: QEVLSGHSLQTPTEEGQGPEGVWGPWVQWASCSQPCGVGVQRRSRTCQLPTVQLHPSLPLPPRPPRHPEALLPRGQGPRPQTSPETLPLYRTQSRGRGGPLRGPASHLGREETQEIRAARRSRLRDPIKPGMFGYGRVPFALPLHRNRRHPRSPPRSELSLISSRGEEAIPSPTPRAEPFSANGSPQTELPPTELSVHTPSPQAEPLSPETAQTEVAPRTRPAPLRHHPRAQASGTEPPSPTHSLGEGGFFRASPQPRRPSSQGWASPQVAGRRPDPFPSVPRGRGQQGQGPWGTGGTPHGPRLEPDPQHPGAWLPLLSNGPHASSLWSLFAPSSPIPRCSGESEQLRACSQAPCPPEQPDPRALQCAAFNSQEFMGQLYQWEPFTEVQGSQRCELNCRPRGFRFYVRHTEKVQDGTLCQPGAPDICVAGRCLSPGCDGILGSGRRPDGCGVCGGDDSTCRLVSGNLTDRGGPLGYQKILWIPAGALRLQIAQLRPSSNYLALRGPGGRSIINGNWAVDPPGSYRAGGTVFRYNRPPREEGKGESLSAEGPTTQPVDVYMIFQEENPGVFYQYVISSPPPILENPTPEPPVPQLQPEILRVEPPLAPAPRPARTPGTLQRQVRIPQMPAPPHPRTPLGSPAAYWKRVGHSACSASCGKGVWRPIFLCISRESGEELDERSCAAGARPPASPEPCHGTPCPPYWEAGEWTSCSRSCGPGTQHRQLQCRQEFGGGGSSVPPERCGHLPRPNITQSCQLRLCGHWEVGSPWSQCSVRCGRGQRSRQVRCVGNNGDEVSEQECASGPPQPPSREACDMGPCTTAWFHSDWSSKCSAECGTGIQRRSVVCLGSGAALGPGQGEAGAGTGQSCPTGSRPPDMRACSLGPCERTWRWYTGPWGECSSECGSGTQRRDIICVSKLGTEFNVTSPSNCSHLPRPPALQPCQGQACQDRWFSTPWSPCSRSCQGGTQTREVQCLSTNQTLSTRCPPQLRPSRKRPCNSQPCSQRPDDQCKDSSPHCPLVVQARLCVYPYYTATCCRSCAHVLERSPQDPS
# Assay: co-IP
substance,measurement,value
COL8A1 fused with mCherry (from UniProt P27658 28-744),binding,no binding
